# Source: PubChem BioAssay AID504786 (Drosophila RNAi Screening Center, 2011)
# Assay: 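Knock-downs reducing HIF reporter induction by the iron chelator DFO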 (primary screen)
# Cell system: Drosophila S2 cells with a stable HIF luciferase reporter
# Knock-down reagent: long dsRNA against Drosophila genes, about 0.2 µg dsRNA per well of a 384-well plate
# Timing: three days of knock-down, then 20 h of DFO before reading
# Conditions: desferrioxamine (DFO) at 100 µM, an iron chelator that mimics hypoxia, for 20 h
# Measured: 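Firefly luciferase driven by the mouse ldh-a hypoxia-response element, measured after 20 h of 100 µM DFO; z-scores per plate, higher means more signal lost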
# Direction: z-score: higher = stronger loss of HIF reporter signal
# In all, the deposit lists about 21,000 reagents; this is an unselected part of those that have a named target and a result. 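Primary screen; positive scores mean lost reporter signal, so the sign may be inverted from the usual convention.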 A plus sign joins genes that one reagent is predicted to hit.
"z-score, replicate 1","z-score, replicate 2","z-score, replicate 3","z-score, replicate 4",target gene,dsRNA
-0.3,-0.6,,,RNF220,DRSC15652
-0.3,-0.5,,,kappaB-Ras + CG30503,DRSC06619
-0.2,-0.2,,,kappaB-Ras + CG30503,DRSC07636
0.9,2.1,,,COX6B,DRSC19590
-0.4,-0.2,,,CG31419,DRSC15771
-0.3,-0.3,,,Naxd,DRSC09722
0.2,-0.1,,,CG14252,DRSC14747
-0.1,-0.1,,,Rdh1,DRSC06812
-0.3,0,,,CG13312,DRSC09983
0,0.7,,,beag,DRSC15296
-0.3,-0.7,,,Mal-A1,DRSC07461
-0.4,-0.5,,,kkv,DRSC12315
1.1,0.5,,,CG12546 + CG14452,DRSC11709
-0.1,-0.3,,,CG3651,DRSC03730
0.2,-0.2,,,CG33521,DRSC17179
-0.3,-0.3,,,CG33521,DRSC17211
1,2,,,Sam-S,DRSC00758
-0.1,-1,,,Tengl1,DRSC00481
-0.3,-0.3,,,Dpm1,DRSC02018
-0.5,-0.5,,,CG42502 + CG10570,DRSC02071
-0.1,-0.1,,,CG4988,DRSC02800
-0.3,-0.3,,,CG9886,DRSC00732
-0.1,-0.5,,,CG4839,DRSC02783
-0.3,-0.5,,,CG4839,DRSC02784
-0.3,-0.8,,,holn1,DRSC02827
-0.4,0,,,CAH1 + Adat1,DRSC02009
-0.3,0.2,,,Acph-1,DRSC14103
0.6,0,,,CG42597,DRSC03681
-0.3,-0.3,,,CG34232,DRSC05332
-0.2,0,,,BomBc3,DRSC15873
-0.2,-0.3,,,TTLL1A,DRSC20121
-0.1,0.6,,,CG18265,DRSC10310
-0.3,-0.4,,,Cp19,DRSC11121
-0.2,-0.2,,,Jheh3,DRSC06533
1.5,1.5,,,mRpS18A,DRSC14369
-0.2,-0.1,,,CG34289,DRSC13625
-0.2,-0.2,,,CG12540,DRSC19471
-0.2,-0.5,,,acj6,DRSC20304
-0.3,-0.7,,,CG14340,DRSC00370
-0.3,-0.3,,,CG15279,DRSC01935
-0.1,0.4,,,Cyfip,DRSC15679
-0.1,-0.2,,,CG8617,DRSC07223
-0.3,1.7,,,Or67a,DRSC11240
-0.6,-0.2,,,CG42694,DRSC03955
0,2.1,,,ida,DRSC08163
0.2,0.9,,,CHKov1,DRSC01566
0.3,0.1,,,CHKov1,DRSC01696
-0.4,-0.4,,,CHKov1,DRSC14258
0,0,,,CHKov1,DRSC20937
0.1,2.1,,,CG18787 + CG18789,DRSC02698
-0.4,-0.5,,,CG18731,DRSC15377
1.4,1.5,,,COX5A,DRSC16611
-0.2,-0.6,,,CG15126,DRSC06548
-0.3,-0.3,,,CG32815,DRSC18177
-0.3,0,0.1,-0.3,CG5928,DRSC18391
0.2,-0.6,,,fs(1)Ya,DRSC18776

Targets above whose target name begins with R or r:
"z-score, replicate 1","z-score, replicate 2","z-score, replicate 3","z-score, replicate 4",target gene,dsRNA
-0.3,-0.6,,,RNF220,DRSC15652
-0.1,-0.1,,,Rdh1,DRSC06812
